Data: patent US20160319032A1
No constants are given. Whether binding was seen depends on the method and setting. Some results given as binding are weak or reduced against the parent protein; the word gives no strength.

Protein sequences, listed by entry. Tags and fused reporters are not part of them. Lines headed by an entry give the natural chain unless they say otherwise; changes in a name come on top.
UniProt P06756: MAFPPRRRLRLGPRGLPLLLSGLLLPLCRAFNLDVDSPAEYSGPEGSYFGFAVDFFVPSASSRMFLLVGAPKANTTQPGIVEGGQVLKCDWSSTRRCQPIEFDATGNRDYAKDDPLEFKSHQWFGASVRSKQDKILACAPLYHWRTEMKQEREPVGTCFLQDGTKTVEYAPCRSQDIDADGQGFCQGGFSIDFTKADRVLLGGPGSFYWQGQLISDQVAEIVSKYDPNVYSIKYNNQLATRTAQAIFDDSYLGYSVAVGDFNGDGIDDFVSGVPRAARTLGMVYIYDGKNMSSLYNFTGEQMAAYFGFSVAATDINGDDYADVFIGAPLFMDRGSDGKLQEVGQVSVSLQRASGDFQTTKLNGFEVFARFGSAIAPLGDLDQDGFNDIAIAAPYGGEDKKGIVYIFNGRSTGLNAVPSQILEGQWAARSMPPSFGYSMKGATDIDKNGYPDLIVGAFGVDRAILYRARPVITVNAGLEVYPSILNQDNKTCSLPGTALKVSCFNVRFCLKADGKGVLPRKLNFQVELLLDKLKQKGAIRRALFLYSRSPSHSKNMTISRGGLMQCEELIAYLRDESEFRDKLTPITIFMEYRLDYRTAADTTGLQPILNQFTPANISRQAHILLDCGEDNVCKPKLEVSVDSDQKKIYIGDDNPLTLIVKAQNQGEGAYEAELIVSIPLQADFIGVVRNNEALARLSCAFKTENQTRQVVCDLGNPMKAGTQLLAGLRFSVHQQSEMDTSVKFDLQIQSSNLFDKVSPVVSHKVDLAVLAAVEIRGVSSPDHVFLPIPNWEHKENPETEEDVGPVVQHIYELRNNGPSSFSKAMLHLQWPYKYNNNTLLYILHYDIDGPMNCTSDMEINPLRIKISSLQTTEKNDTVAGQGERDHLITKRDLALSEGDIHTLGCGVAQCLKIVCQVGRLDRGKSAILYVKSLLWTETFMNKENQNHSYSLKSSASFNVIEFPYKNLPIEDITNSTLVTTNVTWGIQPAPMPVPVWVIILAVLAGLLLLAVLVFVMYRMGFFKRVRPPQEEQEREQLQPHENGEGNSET
UniProt P18564: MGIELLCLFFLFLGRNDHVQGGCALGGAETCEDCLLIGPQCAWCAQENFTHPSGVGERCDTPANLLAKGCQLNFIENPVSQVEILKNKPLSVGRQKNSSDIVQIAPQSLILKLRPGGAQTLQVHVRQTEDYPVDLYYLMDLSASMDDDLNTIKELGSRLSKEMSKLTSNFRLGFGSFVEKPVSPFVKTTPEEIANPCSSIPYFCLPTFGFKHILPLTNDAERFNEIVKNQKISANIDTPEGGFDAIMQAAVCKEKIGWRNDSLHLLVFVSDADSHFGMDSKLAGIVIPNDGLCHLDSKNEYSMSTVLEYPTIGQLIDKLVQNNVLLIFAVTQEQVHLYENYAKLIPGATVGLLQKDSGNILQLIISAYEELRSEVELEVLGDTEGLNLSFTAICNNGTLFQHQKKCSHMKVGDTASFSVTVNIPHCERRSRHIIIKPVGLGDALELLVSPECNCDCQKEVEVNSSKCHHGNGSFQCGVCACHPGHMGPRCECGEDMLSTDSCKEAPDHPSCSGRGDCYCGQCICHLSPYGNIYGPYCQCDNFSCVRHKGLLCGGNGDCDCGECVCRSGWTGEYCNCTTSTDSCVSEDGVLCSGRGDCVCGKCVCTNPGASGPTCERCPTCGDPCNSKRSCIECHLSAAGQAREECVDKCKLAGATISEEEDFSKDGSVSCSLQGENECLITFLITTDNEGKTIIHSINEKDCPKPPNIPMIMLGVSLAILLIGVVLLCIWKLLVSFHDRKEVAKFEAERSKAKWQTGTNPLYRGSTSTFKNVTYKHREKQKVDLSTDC

Molecular target: soluble αVβ6 (human) (UniProt P06756+P18564)
Test: ELISA, recombinant antibody on αVβ6

| binding | Binder |
| --- | --- |
| binds | sc 277 (antibody, V domains shown) VH: EVQLVQSGAEVKKPGESLKISCKGSGYSFPSYWIGWVRQMPGKGLEWMGIIYPGDSDTRYSPSFQGQVTISADKSISTAYLQWSSLKASDTAMYYCARHPMEDGMDVWGQGTTVTVSS VL: SYELTQPPSVSVSPGQTARITCSGDALPKKYAFWYQQKSGQAPVLVIYDDNKRPSGIPERFSGSSSGTMATLTITGAQVEDEADYYCYSTDSSGHHVFGGGTKLTVL |
| binds | sc 161 (antibody, V domains shown) VH: EVQLVQSGAEVKKPGESLKISCKGSGYSFTSYWIGWVRQMPGKGLEWMGIIYPGDSDTRYSPSFQGQVTISADKSISTAYLQWSSLKASDTAMYYCARHGIAAAGFYYYYMDVWGQGTTVTVSS VL: EIVLTQSPDTLSLSPGERASLSCRASQNVNRNYLVWYQQKPGQAPRLLIYGTSNRATGIPDRFSGSGSGTDFTLTISRLEPEDFAVYYCQQCGSLPFTFGPGTKVDIKR |
